Results are given in words; binding and its absence hold for the method and conditions named. Binding seen in cells or lysates may run through a third protein. Some results given as binding are weak or reduced against the parent protein; the word gives no strength.

Protein sequences, listed by entry. Tags and fused reporters are not part of them.
UniProt P40227: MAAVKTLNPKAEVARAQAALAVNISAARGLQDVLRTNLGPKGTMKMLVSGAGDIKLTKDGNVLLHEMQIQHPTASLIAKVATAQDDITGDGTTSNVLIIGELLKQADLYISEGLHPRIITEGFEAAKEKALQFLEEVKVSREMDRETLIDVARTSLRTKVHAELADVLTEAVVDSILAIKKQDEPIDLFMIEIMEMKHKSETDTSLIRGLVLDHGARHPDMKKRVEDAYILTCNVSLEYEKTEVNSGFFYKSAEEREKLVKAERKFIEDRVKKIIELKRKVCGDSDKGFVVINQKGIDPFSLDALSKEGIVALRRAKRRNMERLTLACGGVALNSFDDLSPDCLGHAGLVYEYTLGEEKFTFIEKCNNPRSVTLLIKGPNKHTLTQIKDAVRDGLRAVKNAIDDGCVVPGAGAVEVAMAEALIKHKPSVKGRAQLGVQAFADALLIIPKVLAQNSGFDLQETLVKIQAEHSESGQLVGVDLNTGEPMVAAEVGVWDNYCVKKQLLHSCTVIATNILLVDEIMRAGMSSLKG
UniProt P42224: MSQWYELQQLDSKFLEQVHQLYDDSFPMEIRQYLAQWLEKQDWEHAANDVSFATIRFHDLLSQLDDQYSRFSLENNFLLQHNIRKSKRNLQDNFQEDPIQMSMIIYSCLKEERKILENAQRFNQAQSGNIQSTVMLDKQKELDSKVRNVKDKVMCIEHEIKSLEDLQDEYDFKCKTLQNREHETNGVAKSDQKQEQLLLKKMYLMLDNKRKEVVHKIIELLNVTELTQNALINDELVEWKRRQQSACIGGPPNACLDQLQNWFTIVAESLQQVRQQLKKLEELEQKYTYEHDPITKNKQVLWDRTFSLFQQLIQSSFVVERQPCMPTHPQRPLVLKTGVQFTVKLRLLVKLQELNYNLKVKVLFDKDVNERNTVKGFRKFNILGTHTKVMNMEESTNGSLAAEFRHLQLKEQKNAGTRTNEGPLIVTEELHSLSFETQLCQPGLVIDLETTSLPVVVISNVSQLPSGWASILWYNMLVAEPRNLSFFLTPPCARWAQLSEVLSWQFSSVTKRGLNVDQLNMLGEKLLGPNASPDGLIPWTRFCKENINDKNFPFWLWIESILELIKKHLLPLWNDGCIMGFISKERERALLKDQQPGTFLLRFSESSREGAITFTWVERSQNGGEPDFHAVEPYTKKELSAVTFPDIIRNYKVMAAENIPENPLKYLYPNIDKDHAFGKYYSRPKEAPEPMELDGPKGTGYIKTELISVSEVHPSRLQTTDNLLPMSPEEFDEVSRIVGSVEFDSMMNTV

For the assay, the target named is Chaperonin Containing TCP1 Subunit 6 A (CCT6A) (human (endogenous in A549/PC9)) (UniProt P40227). Put plainly: co-IP; A549/PC9 lysates in RIPA buffer, incubated overnight with primary antibody (anti-CCT6A or anti-STAT1) or IgG and Protein A/G PLUS-Agarose; beads washed with PBS; detected by Western blot.

On to “STAT1 (Signal Transducer and Activator of Transcription 1) (from UniProt P42224 1-750)”, for which the binding result was “binds”.

B1: Hexokinase 2 (HK2) (enzyme, UniProt P52789 1-917)
chain: MIASHLLAYFFTELNHDQVQKVDQYLYHMRLSDETLLEISKRFRKEMEKGLGATTHPTAAVKMLPTFVRSTPDGTEHGEFLALDLGGTNFRVLWVKVTDNGLQKVEMENQIYAIPEDIMRGSGTQLFDHIAECLANFMDKLQIKDKKLPLGFTFSFPCHQTKLDESFLVSWTKGFKSSGVEGRDVVALIRKAIQRRGDFDIDIVAVVNDTVGTMMTCGYDDHNCEIGLIVGTGSNACYMEEMRHIDMVEGDEGRMCINMEWGAFGDDGSLNDIRTEFDQEIDMGSLNPGKQLFEKMISGMYMGELVRLILVKMAKEELLFGGKLSPELLNTGRFETKDISDIEGEKDGIRKAREVLMRLGLDPTQEDCVATHRICQIVSTRSASLCAATLAAVLQRIKENKGEERLRSTIGVDGSVYKKHPHFAKRLHKTVRRLVPGCDVRFLRSEDGSGKGAAMVTAVAYRLADQHRARQKTLEHLQLSHDQLLEVKRRMKVEMERGLSKETHASAPVKMLPTYVCATPDGTEKGDFLALDLGGTNFRVLLVRVRNGKWGGVEMHNKIYAIPQEVMHGTGDELFDHIVQCIADFLEYMGMKGVSLPLGFTFSFPCQQNSLDESILLKWTKGFKASGCEGEDVVTLLKEAIHRREEFDLDVVAVVNDTVGTMMTCGFEDPHCEVGLIVGTGSNACYMEEMRNVELVEGEEGRMCVNMEWGAFGDNGCLDDFRTEFDVAVDELSLNPGKQRFEKMISGMYLGEIVRNILIDFTKRGLLFRGRISERLKTRGIFETKFLSQIESDCLALLQVRAILQHLGLESTCDDSIIVKEVCTVVARRAAQLCGAGMAAVVDRIRENRGLDALKVTVGVDGTLYKLHPHFAKVMHETVKDLAPKCDVSFLQSEDGSGKGAALITAVACRIREAGQR
As to B1, the binding entry is “no binding”.

The values are drawn from publication PMC11094951.
